Measured values published in paper PMC3096577.
These are yes or no findings as the source states them, for the method shown. In cells and extracts the contact can be indirect. A result given as binding can be weak or reduced; the word gives no strength.

These substances were tested against T1, FlbD (C. crescentus (endogenous in LS107 and JG1172)) (UniProt P17899) (assay: co-IP; pre-cleared extracts of JG1172 cells expressing fliX alleles incubated overnight with Agarose-Protein A-anti-FlbD complexes; immunoblot with anti-FliX antibodies).
T1 sequence: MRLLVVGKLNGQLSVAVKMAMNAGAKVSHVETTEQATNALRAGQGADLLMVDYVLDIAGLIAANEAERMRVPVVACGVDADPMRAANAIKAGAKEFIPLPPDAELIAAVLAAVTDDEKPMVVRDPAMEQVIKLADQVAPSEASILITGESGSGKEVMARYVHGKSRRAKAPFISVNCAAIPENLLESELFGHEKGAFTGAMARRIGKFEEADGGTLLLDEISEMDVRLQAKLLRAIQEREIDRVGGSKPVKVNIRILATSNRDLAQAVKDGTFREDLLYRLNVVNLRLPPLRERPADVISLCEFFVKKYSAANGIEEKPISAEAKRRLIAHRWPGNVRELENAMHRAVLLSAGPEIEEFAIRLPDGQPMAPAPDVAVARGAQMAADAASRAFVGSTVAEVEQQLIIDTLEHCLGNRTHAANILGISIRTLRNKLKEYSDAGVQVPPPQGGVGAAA

Row | Substance | binding
1 | FliX_(L136K) (C. crescentus) | binds
2 | FliX_(R71A) (C. crescentus) | binds
3 | FliX_(T130L) (C. crescentus) | binds
4 | FliX_(Δ117-118) (C. crescentus) | binds weakly
5 | wild-type FliX (C. crescentus) | binds
